The values that follow come from publication PMC7337926.

The target in assay [1] is T1, SE fused to the Gal4 DNA binding domain (Arabidopsis thaliana) (UniProt Q9ZVD0).
T1 sequence: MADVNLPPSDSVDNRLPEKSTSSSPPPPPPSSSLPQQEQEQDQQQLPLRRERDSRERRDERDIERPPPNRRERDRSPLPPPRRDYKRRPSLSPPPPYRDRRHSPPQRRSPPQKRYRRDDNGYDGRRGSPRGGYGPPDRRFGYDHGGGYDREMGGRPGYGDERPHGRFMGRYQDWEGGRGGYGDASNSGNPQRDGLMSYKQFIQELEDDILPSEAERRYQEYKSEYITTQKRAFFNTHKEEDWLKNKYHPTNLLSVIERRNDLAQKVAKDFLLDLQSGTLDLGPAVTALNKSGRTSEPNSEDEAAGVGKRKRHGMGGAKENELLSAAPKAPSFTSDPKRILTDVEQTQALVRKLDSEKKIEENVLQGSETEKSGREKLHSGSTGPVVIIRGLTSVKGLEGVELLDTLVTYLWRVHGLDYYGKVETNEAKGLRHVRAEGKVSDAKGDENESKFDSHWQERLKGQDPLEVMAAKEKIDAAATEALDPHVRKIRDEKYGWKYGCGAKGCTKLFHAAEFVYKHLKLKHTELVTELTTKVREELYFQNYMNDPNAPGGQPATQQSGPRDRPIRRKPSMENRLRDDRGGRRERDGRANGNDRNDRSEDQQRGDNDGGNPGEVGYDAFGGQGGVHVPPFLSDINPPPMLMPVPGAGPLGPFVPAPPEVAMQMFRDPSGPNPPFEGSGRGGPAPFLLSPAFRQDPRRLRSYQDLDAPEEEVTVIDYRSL
Briefly: two-hybrid; Matchmaker Gal4 system, S. cerevisiae Y2HGold, 28°C; growth on medium lacking L, T, H, A and on medium with aureobasidin and X-αGal.

Assay [2] has as its target T2, MBP-SE (Arabidopsis thaliana) (UniProt Q9ZVD0).
T2 sequence: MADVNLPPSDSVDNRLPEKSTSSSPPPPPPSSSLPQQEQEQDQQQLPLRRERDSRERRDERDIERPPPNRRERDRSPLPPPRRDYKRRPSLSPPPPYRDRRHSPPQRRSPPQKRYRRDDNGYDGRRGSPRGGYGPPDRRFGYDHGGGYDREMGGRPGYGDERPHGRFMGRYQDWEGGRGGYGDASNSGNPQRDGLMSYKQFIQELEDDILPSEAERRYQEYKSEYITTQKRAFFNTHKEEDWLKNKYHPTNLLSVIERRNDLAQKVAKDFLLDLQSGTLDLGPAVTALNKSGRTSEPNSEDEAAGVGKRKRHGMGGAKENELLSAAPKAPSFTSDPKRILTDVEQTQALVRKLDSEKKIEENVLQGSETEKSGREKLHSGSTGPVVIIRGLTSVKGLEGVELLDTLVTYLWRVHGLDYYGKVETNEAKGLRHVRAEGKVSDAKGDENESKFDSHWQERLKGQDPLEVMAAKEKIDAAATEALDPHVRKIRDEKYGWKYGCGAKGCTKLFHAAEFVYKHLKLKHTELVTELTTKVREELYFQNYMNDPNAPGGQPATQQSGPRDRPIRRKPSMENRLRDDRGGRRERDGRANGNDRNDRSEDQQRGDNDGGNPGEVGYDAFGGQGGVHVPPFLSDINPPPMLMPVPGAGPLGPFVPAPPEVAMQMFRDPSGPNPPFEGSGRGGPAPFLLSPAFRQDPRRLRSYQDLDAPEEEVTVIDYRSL
Briefly: pull-down; MBP-SE bound to amylose beads, [35S]-labelled in vitro translated proteins added, 2 h at 4°C, 20 mM Tris HCl pH 7.5, 200 mM NaCl, 1 mM EDTA; samples treated with RNase; eluted with 20 mM maltose; only the target purified.

For assay [3], the target named is T3, SE-GFP (Arabidopsis thaliana) (UniProt Q9ZVD0).
T3 sequence: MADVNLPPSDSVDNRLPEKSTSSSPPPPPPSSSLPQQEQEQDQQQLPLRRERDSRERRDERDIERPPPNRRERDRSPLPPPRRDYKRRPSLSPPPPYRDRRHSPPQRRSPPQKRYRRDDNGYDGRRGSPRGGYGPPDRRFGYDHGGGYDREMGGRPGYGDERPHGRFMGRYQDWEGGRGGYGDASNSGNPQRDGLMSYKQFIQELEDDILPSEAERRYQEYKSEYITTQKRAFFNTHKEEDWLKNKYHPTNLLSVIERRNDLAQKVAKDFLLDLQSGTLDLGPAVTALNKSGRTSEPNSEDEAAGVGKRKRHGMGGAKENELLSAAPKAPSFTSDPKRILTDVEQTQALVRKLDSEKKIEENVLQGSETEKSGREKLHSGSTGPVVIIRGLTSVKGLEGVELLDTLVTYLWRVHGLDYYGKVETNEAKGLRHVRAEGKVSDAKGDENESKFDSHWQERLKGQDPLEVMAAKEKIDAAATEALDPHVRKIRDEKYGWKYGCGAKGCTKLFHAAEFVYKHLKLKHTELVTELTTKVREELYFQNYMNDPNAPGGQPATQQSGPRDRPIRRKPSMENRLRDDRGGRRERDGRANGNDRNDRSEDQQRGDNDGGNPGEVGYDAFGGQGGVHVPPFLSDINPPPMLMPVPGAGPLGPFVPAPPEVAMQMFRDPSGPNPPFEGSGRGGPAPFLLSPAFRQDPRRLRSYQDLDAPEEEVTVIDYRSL
Put plainly: FRET or BRET; FRET-FLIM in Arabidopsis protoplasts; GFP fusion as donor, RFP fusion as acceptor; fluorescence lifetime of the donor against the PRP39A-RFP control.

No constants are given. Whether binding was seen depends on the method and setting. For part of these data: In cells and extracts the contact can be indirect. Where a sequence is shown, tags or fusion partners need not be part of it.

B1: HEN2 fused to the Gal4 activation domain (protein, UniProt Q9ZVW2 1-995)
chain: MSAQMEEPETLGKRKESESSKLRSDETPTPEPRTKRRSLKRACVHEVAVPNDYTPTKEETIHGTLDNPVFNGDMAKTYPFKLDPFQSVSVACLERKESILVSAHTSAGKTAVAEYAIAMAFRDKQRVIYTSPLKALSNQKYRELQHEFKDVGLMTGDVTLSPNASCLVMTTEILRAMLYRGSEVLKEVAWVIFDEIHYMKDRERGVVWEESIIFLPPAIKMVFLSATMSNATEFAEWICYLHKQPCHVVYTDFRPTPLQHYAFPMGGGGLYLVVDDNEQFREDSFVKMQDTFPKPKSNDGKKSANGKSGGRGAKGGGGPGDSDVYKIVKMIMERKFEPVIIFSFSRRECEQHALSMSKLDFNTDEEKEVVEQVFNNAMQCLNEEDRSLPAIELMLPLLQRGIAVHHSGLLPVIKELVELLFQEGLVKALFATETFAMGLNMPAKTVVFTAVKKWDGDSHRYIGSGEYIQMSGRAGRRGKDERGICIIMIDEQMEMNTLRDMMLGKPAPLLSTFRLSYYTILNLLSRAEGQFTAEHVIRHSFHQFQHEKALPDIGNKVSKLEEEAAILNASGEAEVAEYHNLQFDIAKHEKKLMSEIIRPERVLCFLDTGRLVKIREGGTDWGWGVVVNVVKNSSVGTGSASSHGGGYIVDTLLHCSTGFSENGAKPKPCPPRAGEKGEMHVVPVQLPLISALSRLRISVPSDLRPVEARQSILLALQELSSRFPLGFPKLHPVKDMNIQDTEIVDLVSQIEEVEQKLLAHPMHKSEDDQQIKSFQRKAEVNYEIQQLKSKMRDSQLQKFRDELKNRSRVLKKLGHIDADGVVQVKGRAACLIDTGDELLVTELMFNGTFNDLDHHQVAALASCFIPVDKSNEQVNLRNELTKPLQQLQDSARKIAEIQHECKLEIDVEEYVESTIRPFLMDVIYSWSKGASFAEIIQMTDIFEGSIIRSARRLDEFLNQLRAAAEAVGESSLESKFAAASESLRRGIMFANSLYL
As to B1, the binding result in assay [1] was “no binding”.

B2: [35S]-methionine labeled HEN2 (in vitro translated) (protein, UniProt Q9ZVW2 1-995)
chain: MSAQMEEPETLGKRKESESSKLRSDETPTPEPRTKRRSLKRACVHEVAVPNDYTPTKEETIHGTLDNPVFNGDMAKTYPFKLDPFQSVSVACLERKESILVSAHTSAGKTAVAEYAIAMAFRDKQRVIYTSPLKALSNQKYRELQHEFKDVGLMTGDVTLSPNASCLVMTTEILRAMLYRGSEVLKEVAWVIFDEIHYMKDRERGVVWEESIIFLPPAIKMVFLSATMSNATEFAEWICYLHKQPCHVVYTDFRPTPLQHYAFPMGGGGLYLVVDDNEQFREDSFVKMQDTFPKPKSNDGKKSANGKSGGRGAKGGGGPGDSDVYKIVKMIMERKFEPVIIFSFSRRECEQHALSMSKLDFNTDEEKEVVEQVFNNAMQCLNEEDRSLPAIELMLPLLQRGIAVHHSGLLPVIKELVELLFQEGLVKALFATETFAMGLNMPAKTVVFTAVKKWDGDSHRYIGSGEYIQMSGRAGRRGKDERGICIIMIDEQMEMNTLRDMMLGKPAPLLSTFRLSYYTILNLLSRAEGQFTAEHVIRHSFHQFQHEKALPDIGNKVSKLEEEAAILNASGEAEVAEYHNLQFDIAKHEKKLMSEIIRPERVLCFLDTGRLVKIREGGTDWGWGVVVNVVKNSSVGTGSASSHGGGYIVDTLLHCSTGFSENGAKPKPCPPRAGEKGEMHVVPVQLPLISALSRLRISVPSDLRPVEARQSILLALQELSSRFPLGFPKLHPVKDMNIQDTEIVDLVSQIEEVEQKLLAHPMHKSEDDQQIKSFQRKAEVNYEIQQLKSKMRDSQLQKFRDELKNRSRVLKKLGHIDADGVVQVKGRAACLIDTGDELLVTELMFNGTFNDLDHHQVAALASCFIPVDKSNEQVNLRNELTKPLQQLQDSARKIAEIQHECKLEIDVEEYVESTIRPFLMDVIYSWSKGASFAEIIQMTDIFEGSIIRSARRLDEFLNQLRAAAEAVGESSLESKFAAASESLRRGIMFANSLYL
modifications: [35S]-methionine labeled
For the molecule B2, the binding entry in assay [2] is reported as “no binding”.

B3: HEN2-RFP (protein, UniProt Q9ZVW2 1-995)
chain: MSAQMEEPETLGKRKESESSKLRSDETPTPEPRTKRRSLKRACVHEVAVPNDYTPTKEETIHGTLDNPVFNGDMAKTYPFKLDPFQSVSVACLERKESILVSAHTSAGKTAVAEYAIAMAFRDKQRVIYTSPLKALSNQKYRELQHEFKDVGLMTGDVTLSPNASCLVMTTEILRAMLYRGSEVLKEVAWVIFDEIHYMKDRERGVVWEESIIFLPPAIKMVFLSATMSNATEFAEWICYLHKQPCHVVYTDFRPTPLQHYAFPMGGGGLYLVVDDNEQFREDSFVKMQDTFPKPKSNDGKKSANGKSGGRGAKGGGGPGDSDVYKIVKMIMERKFEPVIIFSFSRRECEQHALSMSKLDFNTDEEKEVVEQVFNNAMQCLNEEDRSLPAIELMLPLLQRGIAVHHSGLLPVIKELVELLFQEGLVKALFATETFAMGLNMPAKTVVFTAVKKWDGDSHRYIGSGEYIQMSGRAGRRGKDERGICIIMIDEQMEMNTLRDMMLGKPAPLLSTFRLSYYTILNLLSRAEGQFTAEHVIRHSFHQFQHEKALPDIGNKVSKLEEEAAILNASGEAEVAEYHNLQFDIAKHEKKLMSEIIRPERVLCFLDTGRLVKIREGGTDWGWGVVVNVVKNSSVGTGSASSHGGGYIVDTLLHCSTGFSENGAKPKPCPPRAGEKGEMHVVPVQLPLISALSRLRISVPSDLRPVEARQSILLALQELSSRFPLGFPKLHPVKDMNIQDTEIVDLVSQIEEVEQKLLAHPMHKSEDDQQIKSFQRKAEVNYEIQQLKSKMRDSQLQKFRDELKNRSRVLKKLGHIDADGVVQVKGRAACLIDTGDELLVTELMFNGTFNDLDHHQVAALASCFIPVDKSNEQVNLRNELTKPLQQLQDSARKIAEIQHECKLEIDVEEYVESTIRPFLMDVIYSWSKGASFAEIIQMTDIFEGSIIRSARRLDEFLNQLRAAAEAVGESSLESKFAAASESLRRGIMFANSLYL
Take B3: the binding entry in assay [3] is “no binding”.
